Measured values: the supplement of paper PMC12823440, “Inhibitors supercharge kinase turnover through native proteolytic circuits” (Nature, 2025)
Counter-ions that a name gives are not always drawn. The list shows a part of the results. The calls rarely recur for the same compound in another form.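 Kinases, fused to nanoluciferase, were expressed in K562 cells; luminescence was measured every 4 h from 2 to 18 h as percent of control (DMSO = 100%, positive control = 0%). A time point is decreased if signal falls significantly (2 sigma). Hits were called by the authors by a rule that is not shown; the count of time points alone does not decide it.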

Chains of the proteins cited; added tags and fusions are not shown. Lines headed by an entry give the natural chain unless they say otherwise; changes in a name come on top.
UniProt O15530: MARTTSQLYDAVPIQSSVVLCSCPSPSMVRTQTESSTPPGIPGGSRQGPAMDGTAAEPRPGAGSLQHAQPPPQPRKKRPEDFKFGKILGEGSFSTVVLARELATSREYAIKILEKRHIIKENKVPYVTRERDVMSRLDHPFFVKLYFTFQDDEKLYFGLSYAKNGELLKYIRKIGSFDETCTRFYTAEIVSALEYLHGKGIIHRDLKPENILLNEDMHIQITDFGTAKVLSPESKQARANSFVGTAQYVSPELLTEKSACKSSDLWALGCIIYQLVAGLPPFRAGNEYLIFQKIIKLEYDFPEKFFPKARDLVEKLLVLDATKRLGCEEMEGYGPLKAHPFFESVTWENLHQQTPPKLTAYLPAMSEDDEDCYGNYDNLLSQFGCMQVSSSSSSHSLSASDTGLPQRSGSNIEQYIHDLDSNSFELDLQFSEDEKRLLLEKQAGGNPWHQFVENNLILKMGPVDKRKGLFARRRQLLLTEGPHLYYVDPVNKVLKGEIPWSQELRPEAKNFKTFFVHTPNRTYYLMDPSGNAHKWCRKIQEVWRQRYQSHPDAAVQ
UniProt P42356, whole entry, looked up: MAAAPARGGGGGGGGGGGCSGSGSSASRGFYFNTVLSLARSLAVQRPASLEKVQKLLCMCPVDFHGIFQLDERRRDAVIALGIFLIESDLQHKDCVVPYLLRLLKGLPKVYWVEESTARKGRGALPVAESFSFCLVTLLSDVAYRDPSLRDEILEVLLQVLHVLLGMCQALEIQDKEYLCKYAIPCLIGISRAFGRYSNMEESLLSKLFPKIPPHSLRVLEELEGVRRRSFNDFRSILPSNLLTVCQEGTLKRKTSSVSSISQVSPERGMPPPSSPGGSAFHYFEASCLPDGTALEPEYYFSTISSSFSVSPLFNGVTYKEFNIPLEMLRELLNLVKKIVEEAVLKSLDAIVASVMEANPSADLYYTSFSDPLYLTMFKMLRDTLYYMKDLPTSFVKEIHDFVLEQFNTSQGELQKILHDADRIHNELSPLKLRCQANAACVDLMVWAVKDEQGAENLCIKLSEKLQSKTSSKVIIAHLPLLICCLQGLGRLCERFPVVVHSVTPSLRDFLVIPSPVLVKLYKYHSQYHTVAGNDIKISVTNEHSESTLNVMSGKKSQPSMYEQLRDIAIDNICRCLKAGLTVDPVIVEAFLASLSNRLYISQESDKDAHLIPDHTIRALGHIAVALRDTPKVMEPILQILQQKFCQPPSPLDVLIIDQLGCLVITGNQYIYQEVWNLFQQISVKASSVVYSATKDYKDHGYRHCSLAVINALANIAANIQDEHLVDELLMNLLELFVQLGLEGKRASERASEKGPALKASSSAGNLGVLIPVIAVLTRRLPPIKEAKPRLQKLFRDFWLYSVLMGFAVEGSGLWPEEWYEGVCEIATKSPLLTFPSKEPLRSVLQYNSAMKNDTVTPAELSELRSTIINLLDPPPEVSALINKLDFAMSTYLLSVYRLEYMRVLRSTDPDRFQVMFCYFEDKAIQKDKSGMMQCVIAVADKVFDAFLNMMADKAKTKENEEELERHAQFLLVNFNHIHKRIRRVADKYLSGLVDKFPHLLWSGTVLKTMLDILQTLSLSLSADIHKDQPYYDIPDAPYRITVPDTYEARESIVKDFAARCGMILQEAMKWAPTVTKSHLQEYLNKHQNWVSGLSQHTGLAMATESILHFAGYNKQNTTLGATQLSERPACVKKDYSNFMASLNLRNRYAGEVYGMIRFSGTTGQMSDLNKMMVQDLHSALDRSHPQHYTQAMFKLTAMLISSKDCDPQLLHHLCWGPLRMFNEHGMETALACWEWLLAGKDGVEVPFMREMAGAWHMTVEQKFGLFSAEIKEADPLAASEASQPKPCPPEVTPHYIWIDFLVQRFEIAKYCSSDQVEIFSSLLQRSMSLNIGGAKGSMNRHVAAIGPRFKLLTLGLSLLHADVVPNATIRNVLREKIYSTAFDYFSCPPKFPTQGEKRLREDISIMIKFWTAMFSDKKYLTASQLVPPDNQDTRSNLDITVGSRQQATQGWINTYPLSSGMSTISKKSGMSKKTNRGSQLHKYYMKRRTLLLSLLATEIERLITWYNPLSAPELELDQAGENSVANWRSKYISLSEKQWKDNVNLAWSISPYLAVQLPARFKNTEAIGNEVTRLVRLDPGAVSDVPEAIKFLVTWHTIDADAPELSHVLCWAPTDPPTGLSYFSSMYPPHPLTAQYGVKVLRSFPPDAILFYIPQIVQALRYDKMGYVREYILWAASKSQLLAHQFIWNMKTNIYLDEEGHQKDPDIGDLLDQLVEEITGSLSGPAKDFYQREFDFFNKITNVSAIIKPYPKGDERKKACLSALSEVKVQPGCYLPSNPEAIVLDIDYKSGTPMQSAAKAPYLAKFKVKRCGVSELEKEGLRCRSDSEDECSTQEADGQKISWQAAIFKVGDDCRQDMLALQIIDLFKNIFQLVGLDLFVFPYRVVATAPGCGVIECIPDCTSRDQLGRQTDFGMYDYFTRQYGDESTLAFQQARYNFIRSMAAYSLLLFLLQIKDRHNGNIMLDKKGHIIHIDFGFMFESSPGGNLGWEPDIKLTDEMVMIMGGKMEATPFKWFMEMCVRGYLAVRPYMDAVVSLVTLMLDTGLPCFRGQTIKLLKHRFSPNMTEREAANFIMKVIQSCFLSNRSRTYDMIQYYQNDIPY
UniProt Q9UBF8: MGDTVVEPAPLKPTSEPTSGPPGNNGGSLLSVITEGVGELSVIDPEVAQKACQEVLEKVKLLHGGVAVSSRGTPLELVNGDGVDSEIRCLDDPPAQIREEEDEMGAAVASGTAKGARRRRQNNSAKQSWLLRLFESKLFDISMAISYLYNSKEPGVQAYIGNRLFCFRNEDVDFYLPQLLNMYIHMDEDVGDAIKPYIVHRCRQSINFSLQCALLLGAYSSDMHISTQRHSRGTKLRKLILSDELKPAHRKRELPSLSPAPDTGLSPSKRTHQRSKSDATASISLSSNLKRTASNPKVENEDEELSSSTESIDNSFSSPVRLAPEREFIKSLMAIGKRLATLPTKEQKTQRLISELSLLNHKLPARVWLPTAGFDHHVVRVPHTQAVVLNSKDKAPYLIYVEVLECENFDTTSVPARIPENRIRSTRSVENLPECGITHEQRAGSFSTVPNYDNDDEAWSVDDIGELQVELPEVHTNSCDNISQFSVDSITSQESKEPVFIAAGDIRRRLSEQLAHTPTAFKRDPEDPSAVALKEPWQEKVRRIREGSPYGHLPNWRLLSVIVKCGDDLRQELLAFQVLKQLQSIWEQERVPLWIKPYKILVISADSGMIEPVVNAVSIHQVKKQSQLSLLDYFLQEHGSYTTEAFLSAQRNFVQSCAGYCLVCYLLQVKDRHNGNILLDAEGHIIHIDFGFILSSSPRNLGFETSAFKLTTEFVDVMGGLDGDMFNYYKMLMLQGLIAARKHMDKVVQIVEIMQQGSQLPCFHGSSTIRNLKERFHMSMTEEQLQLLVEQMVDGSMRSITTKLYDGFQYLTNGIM
UniProt P53350, whole entry: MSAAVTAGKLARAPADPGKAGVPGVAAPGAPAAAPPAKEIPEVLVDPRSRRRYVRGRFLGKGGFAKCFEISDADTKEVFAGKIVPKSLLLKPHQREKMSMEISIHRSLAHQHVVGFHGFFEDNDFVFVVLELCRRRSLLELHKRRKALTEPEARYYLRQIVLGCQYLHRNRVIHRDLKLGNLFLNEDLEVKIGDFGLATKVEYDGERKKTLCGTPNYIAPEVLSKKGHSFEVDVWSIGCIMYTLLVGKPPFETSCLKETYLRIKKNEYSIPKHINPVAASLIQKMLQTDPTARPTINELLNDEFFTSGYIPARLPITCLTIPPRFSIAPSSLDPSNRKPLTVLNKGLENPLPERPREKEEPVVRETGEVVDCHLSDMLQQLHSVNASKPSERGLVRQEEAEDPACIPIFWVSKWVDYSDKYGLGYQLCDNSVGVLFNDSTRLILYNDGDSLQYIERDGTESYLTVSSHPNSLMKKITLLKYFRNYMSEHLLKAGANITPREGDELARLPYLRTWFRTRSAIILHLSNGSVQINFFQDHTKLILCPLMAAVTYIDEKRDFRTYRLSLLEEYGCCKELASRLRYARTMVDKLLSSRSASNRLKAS
UniProt Q9BRS2: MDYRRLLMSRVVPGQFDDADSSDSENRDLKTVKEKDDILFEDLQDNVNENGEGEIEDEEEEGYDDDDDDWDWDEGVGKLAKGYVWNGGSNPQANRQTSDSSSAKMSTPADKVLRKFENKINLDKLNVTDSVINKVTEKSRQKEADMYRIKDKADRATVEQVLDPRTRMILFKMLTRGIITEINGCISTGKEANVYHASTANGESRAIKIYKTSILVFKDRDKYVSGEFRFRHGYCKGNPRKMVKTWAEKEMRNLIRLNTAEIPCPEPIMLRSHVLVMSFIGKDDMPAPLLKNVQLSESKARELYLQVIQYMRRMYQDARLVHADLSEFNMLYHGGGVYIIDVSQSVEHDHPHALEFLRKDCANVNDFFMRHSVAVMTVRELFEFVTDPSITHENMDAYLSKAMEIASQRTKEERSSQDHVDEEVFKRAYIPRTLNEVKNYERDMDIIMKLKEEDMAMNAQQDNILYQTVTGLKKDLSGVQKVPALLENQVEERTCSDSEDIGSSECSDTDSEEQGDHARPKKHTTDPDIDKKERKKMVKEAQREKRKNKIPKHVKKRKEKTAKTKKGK
UniProt Q13546: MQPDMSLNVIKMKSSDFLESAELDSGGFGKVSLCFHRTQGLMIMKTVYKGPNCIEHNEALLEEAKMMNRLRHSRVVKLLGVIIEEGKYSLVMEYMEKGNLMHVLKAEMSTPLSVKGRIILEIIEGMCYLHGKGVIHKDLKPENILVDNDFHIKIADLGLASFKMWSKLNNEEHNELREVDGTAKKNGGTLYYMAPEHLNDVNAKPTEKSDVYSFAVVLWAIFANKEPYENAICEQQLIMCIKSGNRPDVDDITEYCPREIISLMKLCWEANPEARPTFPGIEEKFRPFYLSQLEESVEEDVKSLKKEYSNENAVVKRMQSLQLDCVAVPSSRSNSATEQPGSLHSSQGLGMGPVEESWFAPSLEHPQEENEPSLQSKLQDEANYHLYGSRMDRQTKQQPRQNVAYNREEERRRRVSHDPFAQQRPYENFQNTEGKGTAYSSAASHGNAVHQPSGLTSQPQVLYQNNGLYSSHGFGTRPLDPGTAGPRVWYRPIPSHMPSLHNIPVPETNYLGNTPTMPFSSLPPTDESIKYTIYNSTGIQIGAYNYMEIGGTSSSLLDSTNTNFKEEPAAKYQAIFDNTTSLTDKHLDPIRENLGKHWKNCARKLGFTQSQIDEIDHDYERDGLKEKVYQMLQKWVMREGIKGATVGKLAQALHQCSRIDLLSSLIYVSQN
UniProt Q9Y6E0: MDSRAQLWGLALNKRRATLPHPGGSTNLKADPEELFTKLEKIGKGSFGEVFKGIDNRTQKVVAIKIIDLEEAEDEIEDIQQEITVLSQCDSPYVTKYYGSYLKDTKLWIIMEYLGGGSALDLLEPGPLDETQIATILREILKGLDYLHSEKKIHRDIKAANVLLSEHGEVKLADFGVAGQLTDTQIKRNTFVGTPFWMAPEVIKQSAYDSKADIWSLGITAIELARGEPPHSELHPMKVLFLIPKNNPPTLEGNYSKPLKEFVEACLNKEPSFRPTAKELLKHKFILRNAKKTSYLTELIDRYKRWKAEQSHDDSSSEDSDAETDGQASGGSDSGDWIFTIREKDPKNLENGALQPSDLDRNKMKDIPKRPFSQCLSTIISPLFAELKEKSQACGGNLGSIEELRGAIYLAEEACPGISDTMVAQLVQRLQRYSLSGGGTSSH

Key:
Test in all cases: kinase-Nluc reporter destabilization hit call (1 = scored as downregulated) (binary); higher = compound decreases kinase abundance
Details in all cases: K562, 2-18 h
PDPK1 = PDPK1 (UniProt O15530)
PIK4CA = PIK4CA (UniProt P42356)
PIK4CB = PIK4CB (UniProt Q9UBF8)
PLK1 = PLK1 (UniProt P53350)
PRKAA1 = PRKAA1 (UniProt Q13131)
PRKCA = PRKCA (UniProt P17252)
PTK2 = PTK2 (UniProt Q05397)
PTK2B = PTK2B (UniProt Q14289)
RAF1 = RAF1 (UniProt P04049)
[1] = target: RAF1_S257L (clone: RAF1_mut) (UniProt P04049)
RET = RET (UniProt P07949)
[2] = target: RET_M918T (clone: RET_mut) (UniProt P07949)
RIOK1 = RIOK1 (UniProt Q9BRS2)
RIPK1 = RIPK1 (UniProt Q13546)
RIPK2 = RIPK2 (UniProt O43353)
ROR2 = ROR2 (UniProt Q01974)
RPS6KA1 = RPS6KA1 (UniProt Q15418)
SPHK1 = SPHK1 (UniProt Q9NYA1)
SRC = SRC (UniProt P12931)
STK24 = STK24 (UniProt Q9Y6E0)

Measured: kinase-Nluc reporter destabilization hit call

CC(=O)Nc1cccc(-n2c(=O)n(C3CC3)c(=O)c3c(Nc4ccc(I)cc4F)n(C)c(=O)c(C)c32)c1 [Trametinib]
inactive: PDPK1; 10 µM 0 | PIK4CA; 10 µM 0 | PIK4CB; 10 µM 0 | PLK1; 10 µM 0 | PRKAA1; 10 µM 0 | PRKCA; 10 µM 0 | PTK2; 10 µM 0 | PTK2B; 10 µM 0 | RAF1; 10 µM 0 | [1]; 10 µM 0 | RET; 10 µM 0 | [2]; 10 µM 0 | RIOK1; 10 µM 0 | RIPK1; 10 µM 0 | RIPK2; 10 µM 0 | ROR2; 10 µM 0 | RPS6KA1; 10 µM 0 | SPHK1; 10 µM 0 | SRC; 10 µM 0 | STK24; 10 µM 0

CC(=O)c1c(C)c2cnc(Nc3ccc(N4CCNCC4)cn3)nc2n(C2CCCC2)c1=O [Palbociclib (monohydrochloride)]
inactive: PDPK1; 10 µM 0 | PIK4CA; 10 µM 0 | PIK4CB; 10 µM 0 | PLK1; 10 µM 0 | PRKAA1; 10 µM 0 | PRKCA; 10 µM 0 | PTK2; 10 µM 0 | PTK2B; 10 µM 0 | RAF1; 10 µM 0 | [1]; 10 µM 0 | RET; 10 µM 0 | [2]; 10 µM 0 | RIOK1; 10 µM 0 | RIPK1; 10 µM 0 | RIPK2; 10 µM 0 | ROR2; 10 µM 0 | RPS6KA1; 10 µM 0 | SPHK1; 10 µM 0 | SRC; 10 µM 0 | STK24; 10 µM 0

N=C(N)NC(=O)c1nc(Cl)c(N)nc1N [Amiloride hydrochloride dihydrate]
inactive: PDPK1; 10 µM 0 | PIK4CA; 10 µM 0 | PIK4CB; 10 µM 0 | PLK1; 10 µM 0 | PRKAA1; 10 µM 0 | PRKCA; 10 µM 0 | PTK2; 10 µM 0 | PTK2B; 10 µM 0 | RAF1; 10 µM 0 | [1]; 10 µM 0 | RET; 10 µM 0 | [2]; 10 µM 0 | RIOK1; 10 µM 0 | RIPK1; 10 µM 0 | RIPK2; 10 µM 0 | ROR2; 10 µM 0 | RPS6KA1; 10 µM 0 | SPHK1; 10 µM 0 | SRC; 10 µM 0 | STK24; 10 µM 0

c1cc(-c2cnn3cc(-c4ccc(OCCN5CCCCC5)cc4)cnc23)ccn1 [Dorsomorphin]
inactive: PDPK1; 2.5 µM 0 | PIK4CA; 2.5 µM 0 | PIK4CB; 2.5 µM 0 | PLK1; 2.5 µM 0 | PRKAA1; 2.5 µM 0 | PRKCA; 2.5 µM 0 | PTK2; 2.5 µM 0 | PTK2B; 2.5 µM 0 | RAF1; 2.5 µM 0 | [1]; 2.5 µM 0 | RET; 2.5 µM 0 | [2]; 2.5 µM 0 | RIOK1; 2.5 µM 0 | RIPK1; 2.5 µM 0 | RIPK2; 2.5 µM 0 | ROR2; 2.5 µM 0 | RPS6KA1; 2.5 µM 0 | SPHK1; 2.5 µM 0 | SRC; 2.5 µM 0 | STK24; 2.5 µM 0

CC(C)Oc1ccc(-c2nn([C@@H](C)c3oc4ccc(F)cc4c(=O)c3-c3cccc(F)c3)c3ncnc(N)c23)cc1F [Umbralisib]
inactive: PDPK1; 2.5 µM 0 | PIK4CA; 2.5 µM 0 | PIK4CB; 2.5 µM 0 | PLK1; 2.5 µM 0 | PRKAA1; 2.5 µM 0 | PRKCA; 2.5 µM 0 | PTK2; 2.5 µM 0 | PTK2B; 2.5 µM 0 | RAF1; 2.5 µM 0 | [1]; 2.5 µM 0 | RET; 2.5 µM 0 | [2]; 2.5 µM 0 | RIOK1; 2.5 µM 0 | RIPK1; 2.5 µM 0 | RIPK2; 2.5 µM 0 | ROR2; 2.5 µM 0 | RPS6KA1; 2.5 µM 0 | SPHK1; 2.5 µM 0 | SRC; 2.5 µM 0 | STK24; 2.5 µM 0

C#Cc1cccc(Nc2ncnc3cc(OCCOC)c(OCCOC)cc23)c1 [Erlotinib]
inactive: PDPK1; 10 µM 0 | PIK4CA; 10 µM 0 | PIK4CB; 10 µM 0 | PLK1; 10 µM 0 | PRKAA1; 10 µM 0 | PRKCA; 10 µM 0 | PTK2; 10 µM 0 | PTK2B; 10 µM 0 | RAF1; 10 µM 0 | [1]; 10 µM 0 | RET; 10 µM 0 | [2]; 10 µM 0 | RIOK1; 10 µM 0 | RIPK1; 10 µM 0 | RIPK2; 10 µM 0 | ROR2; 10 µM 0 | RPS6KA1; 10 µM 0 | SPHK1; 10 µM 0 | SRC; 10 µM 0 | STK24; 10 µM 0

Three compounds from above, sorted by molecular weight, rising:
N=C(N)NC(=O)c1nc(Cl)c(N)nc1N [Amiloride hydrochloride dihydrate]
inactive: PDPK1; 10 µM 0 | PIK4CA; 10 µM 0 | PIK4CB; 10 µM 0 | PLK1; 10 µM 0 | PRKAA1; 10 µM 0 | PRKCA; 10 µM 0 | PTK2; 10 µM 0 | PTK2B; 10 µM 0 | RAF1; 10 µM 0 | [1]; 10 µM 0 | RET; 10 µM 0 | [2]; 10 µM 0 | RIOK1; 10 µM 0 | RIPK1; 10 µM 0 | RIPK2; 10 µM 0 | ROR2; 10 µM 0 | RPS6KA1; 10 µM 0 | SPHK1; 10 µM 0 | SRC; 10 µM 0 | STK24; 10 µM 0

C#Cc1cccc(Nc2ncnc3cc(OCCOC)c(OCCOC)cc23)c1 [Erlotinib]
inactive: PDPK1; 10 µM 0 | PIK4CA; 10 µM 0 | PIK4CB; 10 µM 0 | PLK1; 10 µM 0 | PRKAA1; 10 µM 0 | PRKCA; 10 µM 0 | PTK2; 10 µM 0 | PTK2B; 10 µM 0 | RAF1; 10 µM 0 | [1]; 10 µM 0 | RET; 10 µM 0 | [2]; 10 µM 0 | RIOK1; 10 µM 0 | RIPK1; 10 µM 0 | RIPK2; 10 µM 0 | ROR2; 10 µM 0 | RPS6KA1; 10 µM 0 | SPHK1; 10 µM 0 | SRC; 10 µM 0 | STK24; 10 µM 0

CC(C)Oc1ccc(-c2nn([C@@H](C)c3oc4ccc(F)cc4c(=O)c3-c3cccc(F)c3)c3ncnc(N)c23)cc1F [Umbralisib]
inactive: PDPK1; 2.5 µM 0 | PIK4CA; 2.5 µM 0 | PIK4CB; 2.5 µM 0 | PLK1; 2.5 µM 0 | PRKAA1; 2.5 µM 0 | PRKCA; 2.5 µM 0 | PTK2; 2.5 µM 0 | PTK2B; 2.5 µM 0 | RAF1; 2.5 µM 0 | [1]; 2.5 µM 0 | RET; 2.5 µM 0 | [2]; 2.5 µM 0 | RIOK1; 2.5 µM 0 | RIPK1; 2.5 µM 0 | RIPK2; 2.5 µM 0 | ROR2; 2.5 µM 0 | RPS6KA1; 2.5 µM 0 | SPHK1; 2.5 µM 0 | SRC; 2.5 µM 0 | STK24; 2.5 µM 0

(more compounds)

O=C(Nc1ccncc1)Nc1ccc(-c2nc(N3CCOCC3)nc(N3C4CCC3COC4)n2)cc1 [PKI-179 (hydrochloride)]
inactive: PDPK1; 2.5 µM 0 | PIK4CA; 2.5 µM 0 | PIK4CB; 2.5 µM 0 | PLK1; 2.5 µM 0 | PRKAA1; 2.5 µM 0 | PRKCA; 2.5 µM 0 | PTK2; 2.5 µM 0 | PTK2B; 2.5 µM 0 | RAF1; 2.5 µM 0 | [1]; 2.5 µM 0 | RET; 2.5 µM 0 | [2]; 2.5 µM 0 | RIOK1; 2.5 µM 0 | RIPK1; 2.5 µM 0 | RIPK2; 2.5 µM 0 | ROR2; 2.5 µM 0 | RPS6KA1; 2.5 µM 0 | SPHK1; 2.5 µM 0 | SRC; 2.5 µM 0 | STK24; 2.5 µM 0

N#CCNC(=O)c1ccc(-c2ccnc(Nc3ccc(N4CCOCC4)cc3)n2)cc1 [Momelotinib sulfate]
inactive: PDPK1; 10 µM 0 | PIK4CA; 10 µM 0 | PIK4CB; 10 µM 0 | PLK1; 10 µM 0 | PRKAA1; 10 µM 0 | PRKCA; 10 µM 0 | PTK2; 10 µM 0 | PTK2B; 10 µM 0 | RAF1; 10 µM 0 | [1]; 10 µM 0 | RET; 10 µM 0 | [2]; 10 µM 0 | RIOK1; 10 µM 0 | RIPK1; 10 µM 0 | RIPK2; 10 µM 0 | ROR2; 10 µM 0 | RPS6KA1; 10 µM 0 | SPHK1; 10 µM 0 | SRC; 10 µM 0 | STK24; 10 µM 0

C=CC(=O)Nc1cc(Nc2nccc(-c3cn(C)c4ccccc34)n2)c(OC)cc1N(C)CCN(C)C [Osimertinib]
inactive: PDPK1; 2.5 µM 0 | PIK4CA; 2.5 µM 0 | PIK4CB; 2.5 µM 0 | PLK1; 2.5 µM 0 | PRKAA1; 2.5 µM 0 | PRKCA; 2.5 µM 0 | PTK2; 2.5 µM 0 | PTK2B; 2.5 µM 0 | RAF1; 2.5 µM 0 | [1]; 2.5 µM 0 | RET; 2.5 µM 0 | [2]; 2.5 µM 0 | RIOK1; 2.5 µM 0 | RIPK1; 2.5 µM 0 | RIPK2; 2.5 µM 0 | ROR2; 2.5 µM 0 | RPS6KA1; 2.5 µM 0 | SPHK1; 2.5 µM 0 | SRC; 2.5 µM 0 | STK24; 2.5 µM 0
